This is an account of results in PubChem BioAssay AID1347426 (Functional Genomics Laboratory (NCATS/FGL), 2020).

The whole screen tested about 31,000 sequences, of which about 1,400 (4.5%) were called active.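 Rule for the calls: active = median seed-adjusted z-score above 1 or below -1; inactive = the rest.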 This is one part of the list.

A short description of the assay: Novel Modifiers of Survival Motor Neuron (SMN) Protein: Gene Identification via Genome-wide siRNA Screen.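 Note: luminescence tracks full-length SMN protein made from the SMN2 reporter.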 To be noted: HEK293T SMN2-luciferase reporter, siRNA knockdown, 72 h; actives lie on both sides. In outline: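 Steps: spot 1 pmol siRNA, add Lipofectamine RNAiMax in serum-free DMEM, seed HEK293T SMN2–luciferase reporter cells; incubate 72 h at 37 °C; add ONE-Glo; normalize luminescence to control siRNA, log10, MAD. Candidates: |MAD| > 1.0.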
Background: Reporter assays use an easily measured gene product as a stand-in for the process of interest.
For GGUUCUAGCAAACACCAAUTT against CALM3, the median seed-adjusted z-score was inactive: 0.225.
For GAAGAAAUGUUGUUCGAAUTT against KAL1 the value was inactive: 0.0824.
The result for GCCUUUCCAUGUCAUGAGATT against ZDHHC4 reads inactive: 0.181; that for GCGUUAUCCUCGUACCUUUTT against STC2, inactive: -0.00039.
The result for GCAAUGAUGUCGAUGACCATT against CDK5 reads inactive: 0.402.
Consider CAUCACUGAUCAAGCCUAATT against SLC13A4, for which the median seed-adjusted z-score is inactive: 0.446.
As for GCCUCUACAGCAGAAGAAATT against LAMB2, the median seed-adjusted z-score was active: 1.12.
For GCGACUUGUCUUCUUCUUUTT against NDUFB11, the median seed-adjusted z-score is inactive: 0.014.
Consider GGAAGAUCCGAUCCAAUCATT against IQGAP3, for which the median seed-adjusted z-score was inactive: -0.183.
Consider GAGAAUCAAGAGUUCUUAATT against NES, for which the median seed-adjusted z-score is inactive: 0.613.
CGAGUGAUGCGAUUGGUGATT against CACNA1D: the median seed-adjusted z-score was inactive: -0.0856.
As to GAAGAGCUCUUAGAGUGUATT against BCAT1, the median seed-adjusted z-score was inactive: -0.604.
As to GAUCUAUUGGAUUAGCCUATT against FST, the median seed-adjusted z-score is inactive: 0.357.
As for ACGGCACGCUUGUACAUGATT against TGM3, the median seed-adjusted z-score was inactive: 0.257.
As for GAUCUACCGUCAAAGCUCUTT against ABCC8, the median seed-adjusted z-score is inactive: 0.24.
As for GCCUAAGUUUUUGACUAAATT against HBS1L, the median seed-adjusted z-score was inactive: -0.509.
For GAAUGUGCAUCCUUAUAUATT against HOXD10, the median seed-adjusted z-score was inactive: -0.374.
As for CAAGAAUUGUUGUACUAGUTT against ZNF556, the median seed-adjusted z-score is inactive: 0.
The result for GGAGGAGCCUAAGAUGUCATT against ZNF442 reads active: 1.06; that for GCAAGAUCGUCAACUAUUATT against IPPK, inactive: 0.389.
CGGUCAAUGUUCUAAAGAUTT against CACNG5: the median seed-adjusted z-score is inactive: -0.41.
Regarding GCAUGGAAAAGGUUCAUGATT against CATSPER4, the median seed-adjusted z-score was inactive: -0.669.
For GCUUUGAGAUUUUCGAGGATT against MYO1B the value was inactive: 0.903.
For the sequence UGACAAUACCUACUAUGCATT against CAMKK2, the median seed-adjusted z-score was inactive: -0.121.
In the case of GAAGAAACUUGUGAACGAATT against MX1, the median seed-adjusted z-score was active: -1.49.
Regarding GCCCAUAGGUUGGUUCUCATT against KLHL4, the median seed-adjusted z-score was inactive: 0.
Regarding ACCCUUCUCUGUCCAUUGATT against UCN, the median seed-adjusted z-score was inactive: -0.472.
Turning to UCAUCAACAAGGAAAAUUATT against NPTN, the median seed-adjusted z-score is inactive: 0.133.
With CCUAAAAAGUGACAUCGGUTT against CBARA1, the median seed-adjusted z-score was inactive: -0.0426.
With GAGUGGUAUUUGAUCAGGATT against ACO1, the median seed-adjusted z-score was inactive: -0.197.
As to GAGUGUAUGUGAUCAUCGATT against PRKCE, the median seed-adjusted z-score was inactive: 0.568.
As for GAAGUUUCCAAAUACGAGATT against CDK9, the median seed-adjusted z-score was inactive: 0.901.
Take GGCAUAUCUCUUCACUAUATT against LPHN2: the median seed-adjusted z-score was inactive: -0.817.
For CAGGUACUAUGAUCAGAUUTT against PLXNB3, the median seed-adjusted z-score was inactive: -0.0652.
Regarding GGGCUUUGCUAUUUCAACUTT against SDHD, the median seed-adjusted z-score was inactive: -0.538.
Regarding CAAGGUGUUUUACCUGAAATT against YWHAH, the median seed-adjusted z-score is inactive: -0.125.
For the sequence GCUUUGGAAGAAUACGUUATT against NR2F2, the median seed-adjusted z-score was inactive: 0.129.
For GAAACUGCUAUAUUUGAAUTT against ZNF587 the value was inactive: -0.178; for GCUACUUCGUGACGCGAGATT against HS3ST6, inactive: 0.
In the case of ACAGGUCAGCAAAAACAGUTT against KREMEN2, the median seed-adjusted z-score was inactive: -0.0883.
For CAGUGAGAUUGGGAUGAAATT against CD247 the value was inactive: -0.522; for CUCUGAACAUCAACCCGGATT against DMRTB1, inactive: -0.393.
For GGACAUUCUAGAGAAAGAATT against SUPT5H the value was active: -4.02; for UGAGUAUGCCUACCUCAAATT against HNF4A, inactive: -0.0274.
On to GAGAUUGGGUGGAAGAGAATT against FOXD2, for which the median seed-adjusted z-score was inactive: -0.0853.
With GCUCGAUUCCAGAUAGGAATT against DDX52, the median seed-adjusted z-score was inactive: -0.2.
Take GGAUCUAUCGUCAAUAUCATT against PECR: the median seed-adjusted z-score was inactive: -0.347.
For GGAAAUAGAUGGGCAACUUTT against GBP5, the median seed-adjusted z-score was inactive: -0.194.
For UCAUCAUGGUUCAUAUUUATT against PDCL, the median seed-adjusted z-score is inactive: -0.802.
For GGAAUAUGAGGUGACCGUUTT against IL17RA the value was active: -1.29; for GGACGACGACGAGUUUGCATT against EHD3, inactive: 0.569; for GCUGGUGACUGGUACUUCATT against ADAM15, inactive: -0.682.
As to CCUACGGGAUUGGACUGAATT against ETFDH, the median seed-adjusted z-score is inactive: 0.154.
The result for GGACAUCACAGGCUAUUCATT against SYT6 reads inactive: -0.072; that for CACCGACUAUCUCACGUGATT against PSMB2, inactive: 0; that for GCUUGUUACACGUACUCUATT against ACSL5, inactive: 0.109.
Regarding GGAAUUCGAUGACCCGCUATT against PPP1R3B, the median seed-adjusted z-score is inactive: -0.298.
CAUUAUAUGCUGUACAAGATT against ITGB5: the median seed-adjusted z-score was inactive: -0.00882.
The result for GGUGAUCUAUUAUAAGGAUTT against FCER1A reads inactive: -0.0293; that for GGAGGAACAGCAGACCUUATT against ZNF76, inactive: -0.0395; that for GGAAUAAUCUUUGCUGAGATT against TICAM2, inactive: -0.256.
For the sequence GUACCAAAGUGCAAUCAAATT against PPARG, the median seed-adjusted z-score was inactive: -0.0309.
GCACUGAGACCAUUGAAGATT against PCTK3: the median seed-adjusted z-score is inactive: 0.
Consider GAAUUUUGAUGGACAAGUUTT against RAG2, for which the median seed-adjusted z-score is inactive: 0.138.
GGAUUCAUCCUUACCCUCATT against PPP2R4: the median seed-adjusted z-score is inactive: 0.318.
For GGAUGUCAGUGUUUCGGAATT against UHMK1 the value was inactive: -0.269.
Turning to CUGUGACACUUAUAAAUAUTT against ATP6V1G2, the median seed-adjusted z-score was inactive: -0.664.
For CGGCAUCUCGUCCUACUUUTT against DDX51 the value was inactive: -0.0715; for AGGUUUACGUGUAAUUCCATT against ZSCAN5A, inactive: 0.31.
For CCAUCGAACGGAAUCAGGATT against PPP6C, the median seed-adjusted z-score is inactive: -0.0212.
Take CCUCUUACACUUUUCCGAATT against PECI: the median seed-adjusted z-score was inactive: -0.0254.
On to CAUCUUUCCUAAAGAGUUUTT against POLR2D, for which the median seed-adjusted z-score was active: -3.79.
Regarding AGACCUUCGCCUUUCCCUATT against DBX1, the median seed-adjusted z-score is inactive: 0.0137.
For CCAUCUAUAGGACCGCCUATT against EGFL7, the median seed-adjusted z-score is inactive: 0.8.
Regarding GCAGAGACGGCAGACAUGATT against CABP2, the median seed-adjusted z-score was inactive: 0.323.
With GACCAAAAGAAGUACUUAATT against MTMR6, the median seed-adjusted z-score is inactive: -0.395.
As to CUCUCGUCUUACUUACAUATT against COL17A1, the median seed-adjusted z-score was inactive: 0.252.
Consider GGACUUACCUCAAUCAGAUTT against ZDHHC13, for which the median seed-adjusted z-score is inactive: -0.381.
On to GAGCUUCAAUAUCCCUCUATT against HDAC3, for which the median seed-adjusted z-score was inactive: 0.579.
As for GCAAGGAGCUGAUCGAUCUTT against PLCE1, the median seed-adjusted z-score is inactive: 0.597.
Turning to AGAUCUAUCCUAGCCGGGATT against RING1, the median seed-adjusted z-score was inactive: 0.685.
Regarding CCAGUGAUCUAGAACAACUTT against SLC30A9, the median seed-adjusted z-score is inactive: -0.0779.
For the sequence CCUUAACAAUAGUAAUGGATT against EXOSC8, the median seed-adjusted z-score is inactive: 0.203.
For CCACCACCGUGUUCAACUUTT against DUSP1, the median seed-adjusted z-score was inactive: 0.336.
Regarding CGACCGUCAUUACCACCAUTT against KCNK5, the median seed-adjusted z-score was inactive: 0.
With GGAAGUCCACAAUGACUAUTT against GDPD5, the median seed-adjusted z-score is inactive: -0.0618.
With CAUGCUGCAUGGUAUCCAATT against NUP88, the median seed-adjusted z-score is inactive: 0.709.
With GAACAAGAACUGAGGGAAATT against BCL2L10, the median seed-adjusted z-score was inactive: 0.361.
As to GGACGAAUGAUGCAGUUAATT against PLCH1, the median seed-adjusted z-score is inactive: -0.00634.
Regarding GGCAUUGACUUAGUUCAAATT against IL10RA, the median seed-adjusted z-score was inactive: 0.156.
Take GCUGUUACUUUGCUAGGAATT against HACL1: the median seed-adjusted z-score is inactive: -0.0664.
Consider GGAUAGCUAAAGAAAUUCATT against IMPA1, for which the median seed-adjusted z-score was inactive: -0.295.
For GGUCUGCGGUUGAAGCUAUTT against NR1H4 the value was inactive: -0.056; for GAAGUGACCUAUGACAAAATT against PTP4A3, inactive: 0.354; for CUACCGUGCAAGUUCAUUATT against CD3D, inactive: -0.403.
The result for GGAAUGAUUGCAAUUAGUATT against SERPINI1 reads inactive: 0.127; that for GGAGCUCAUUUGACAUGUATT against KIR2DL5B, active: 1.72.
Regarding GAGCUGUACCGUGACAUUUTT against NFE2, the median seed-adjusted z-score is inactive: -0.0226.
Turning to GGAUGCUUCUGGGAAUUUATT against MAT2B, the median seed-adjusted z-score is inactive: -0.554.
For GAGUGGAAGUCAUACCCUATT against TTLL3, the median seed-adjusted z-score is inactive: -0.194.
Regarding CCUUUGCUAUGAUCAUUGATT against PCBP2, the median seed-adjusted z-score was inactive: 0.
As to GAAUUACUGAUGUCCUUGATT against RUFY1, the median seed-adjusted z-score is inactive: 0.119.
In the case of GUAAGCAACGUAUUAAAUATT against STAM, the median seed-adjusted z-score was inactive: 0.
Consider GGUCAUUAAUUUACAUGAATT against STK17A, for which the median seed-adjusted z-score was inactive: 0.
Consider AGUCAGCAUUCGCUACAAUTT against SLC31A1, for which the median seed-adjusted z-score was inactive: 0.
In the case of CCCUAUUCUUCGCUACCUATT against CYP1A1, the median seed-adjusted z-score is inactive: 0.124.
For GCCUGGUUAUAGAUCGAGATT against PRKG2 the value was inactive: 0.272; for GGAAAUGAGUGUCUGAACATT against CHMP6, active: -1.81.
